One experiment addresses T1, GST-TIA1 (UniProt P31483).
T1 sequence: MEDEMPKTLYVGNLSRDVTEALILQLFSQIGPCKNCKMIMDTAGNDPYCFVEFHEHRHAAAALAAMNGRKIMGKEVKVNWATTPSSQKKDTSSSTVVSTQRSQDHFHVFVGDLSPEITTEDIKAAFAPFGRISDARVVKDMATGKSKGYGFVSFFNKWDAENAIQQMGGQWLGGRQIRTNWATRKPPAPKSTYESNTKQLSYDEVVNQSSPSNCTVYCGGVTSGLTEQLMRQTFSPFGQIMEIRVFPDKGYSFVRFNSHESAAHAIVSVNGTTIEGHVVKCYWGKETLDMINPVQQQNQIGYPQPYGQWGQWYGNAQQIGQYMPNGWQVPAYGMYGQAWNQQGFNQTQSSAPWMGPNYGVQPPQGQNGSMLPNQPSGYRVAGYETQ
The experiment is described as follows: pull-down; purified GST fusion added to P14 rat cortical lysate in RIPA buffer, 4 °C, captured on glutathione resin, NP40 wash buffer; western blot; only the target purified. For orientation: A western blot detects proteins with antibodies after separation by electrophoresis.

Experiment [1] has as its target T2, HA-TIA1 (expressed in HEK293T) (UniProt P31483).
T2 sequence: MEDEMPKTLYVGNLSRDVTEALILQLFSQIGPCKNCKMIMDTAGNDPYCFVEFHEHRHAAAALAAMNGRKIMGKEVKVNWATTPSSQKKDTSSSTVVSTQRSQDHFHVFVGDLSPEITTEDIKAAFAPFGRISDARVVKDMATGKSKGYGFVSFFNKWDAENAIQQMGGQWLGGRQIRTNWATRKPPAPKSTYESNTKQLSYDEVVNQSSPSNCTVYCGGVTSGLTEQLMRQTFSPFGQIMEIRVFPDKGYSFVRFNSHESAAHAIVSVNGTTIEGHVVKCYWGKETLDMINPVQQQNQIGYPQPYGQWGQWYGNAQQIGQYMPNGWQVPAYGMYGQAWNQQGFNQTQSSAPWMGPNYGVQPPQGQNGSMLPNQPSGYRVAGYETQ
The experiment is described as follows: co-IP; HEK293T co-transfected, NP40 lysis buffer, anti-Flag M2 or anti-HA beads, 3 h at 4 °C, wash with 300 mM NaCl; with or without overexpressed Myc-ANXA7.

The record followed here is PMC12706091.

These are yes or no findings as the source states them, for the method shown. In cells and extracts the contact can be indirect. Some entries that bind do so weakly or less than the wild type. Tags and fused reporters may be left off the sequences shown.

B1: Annexin A7 (ANXA7), endogenous (protein, UniProt Q6IRJ7 1-485)
chain: MSYPGYPPTGYPPFPGYPPAGQESSFPTSGQYPYPSGFPPMGGGAYPPAPSGGYPGAGGYPSPGGYPAPGGYPGTLNPGGPPSYPGGQGFGAPPGGAGFSGYPQPPAQSYGGGPAQVPVPGGFPGGQMPSQYPGGQSPYPGQIDTESFSSYPAFSPVSLDYSSDPAAMTQGTQGTIRPASNFDAMRDAEILRKAMKGFGTDEQAIVDVVSNRSNDQRQQIKAAFKTMYGKDLIKDLKSELSGNMEELILALFMPPTYYDAWSLRKAIQGAGTQERVLIEILCTRTNQEIRDIVRCYQLEFGRELERDIRSDTSGHFERLLVSMCQGNRDESPSINHQMAQEDAQRLYQAGEGRLGTDESCFNMILATRSFPQLRATMEAYSRMANRDLLSSVSREFSGYVESGLKTILQCALNRPAFFAERLYYSMKGAGTDDSTLVRIVVTRSEIDLVQIKQMFTQMYQKTLSTMIASDTSGDYRKLLLAIVGQ
Turning to B1, in the experiment with GST-TIA1, the binding entry is reported as “binds”.

B2: Myc-ANXA7 (expressed in HEK293T) (protein, UniProt Q6IRJ7 1-485)
chain: MSYPGYPPTGYPPFPGYPPAGQESSFPTSGQYPYPSGFPPMGGGAYPPAPSGGYPGAGGYPSPGGYPAPGGYPGTLNPGGPPSYPGGQGFGAPPGGAGFSGYPQPPAQSYGGGPAQVPVPGGFPGGQMPSQYPGGQSPYPGQIDTESFSSYPAFSPVSLDYSSDPAAMTQGTQGTIRPASNFDAMRDAEILRKAMKGFGTDEQAIVDVVSNRSNDQRQQIKAAFKTMYGKDLIKDLKSELSGNMEELILALFMPPTYYDAWSLRKAIQGAGTQERVLIEILCTRTNQEIRDIVRCYQLEFGRELERDIRSDTSGHFERLLVSMCQGNRDESPSINHQMAQEDAQRLYQAGEGRLGTDESCFNMILATRSFPQLRATMEAYSRMANRDLLSSVSREFSGYVESGLKTILQCALNRPAFFAERLYYSMKGAGTDDSTLVRIVVTRSEIDLVQIKQMFTQMYQKTLSTMIASDTSGDYRKLLLAIVGQ
Turning to B2, in experiment [1], the binding result is listed as “binds”.
